Experimental data taken from US10864252B2, “Anti-SSX-2 T cell receptors and related materials and methods of use” (The United States of America, as represented by the …, priority 2010, dated 2020).

B1: SSX2-TCR-WT: HLA-A2 restricted anti-SSX-2 TCR alpha and beta chains encoded by SEQ ID NO: 27, tested as transduced human PBLs (protein)
chain: MSLSSLLKVVTASLWLGPGIAQKITQTQPGMFVQEKEAVTLDCTYDTSDPSYGLFWYKQPSSGEMIFLIYQGSYDQQNATEGRYSLNFQKARKSANLVISASQLGDSAMYFCAMTSGFGNEKLTFGTGTRLTIIPNIQNPDPAVYQLRDSKSSDKSVCLFTDFDSQTNVSQSKDSDVYITDKTVLDMRSMDFKSNSAVAWSNKSDFACANAFNNSIIPEDTFFPSPESSCDVKLVEKSFETDTNLNFQNLSVIGFRILLLKVAGFNLLMTLRLWSSRAKRSGSGATNFSLLKQAGDVEENPGPMGPGLLHWMALCLLGTGHGDAMVIQNPRYQVTQFGKPVTLSCSQTLNHNVMYWYQQKSSQAPKLLFHYYDKDFNNEADTPDNFQSRRPNTSFCFLDIRSPGLGDAAMYLCATSRGQGGQPQHFGDGTRLSILEDLNKVFPPEVAVFEPSEAEISHTQKATLVCLATGFFPDHVELSWWVNGKEVHSGVSTDPQPLKEQPALNDSRYCLSSRLRVSATFWQNPRNHFRCQVQFYGLSENDEWTQDRAKPVTQIVSAEAWGRADCGFTSVSYQQGVLSATILYEILLGKATLYAVLVSALVLMAMVKRKDF
B2: SSX2-TCR-Co Op: codon-optimized anti-SSX-2 TCR alpha and beta chains encoded by SEQ ID NO: 29, tested as transduced human PBLs (protein)
chain: MALSSLLKVVTASLWLGPGIAQKITQTQPGMFVQEKEAVTLDCTYDTSDPSYGLFWYKQPSSGEMIFLIYQGSYDQQNATEGRYSLNFQKARKSANLVISASQLGDSAMYFCAMTSGFGNEKLTFGTGTRLTIIPNIQNPDPAVYQLRDSKSSDKSVCLFTDFDSQTNVSQSKDSDVYITDKTVLDMRSMDFKSNSAVAWSNKSDFACANAFNNSIIPEDTFFPSPESSCDVKLVEKSFETDTNLNFQNLSVIGFRILLLKVAGFNLLMTLRLWSSRAKRSGSGATNFSLLKQAGDVEENPGPMGPGLLHWMALCLLGTGHGDAMVIQNPRYQVTQFGKPVTLSCSQTLNHNVMYWYQQKSSQAPKLLFHYYDKDFNNEADTPDNFQSRRPNTSFCFLDIRSPGLGDAAMYLCATSRGQGGQPQHFGDGTRLSILEDLNKVFPPEVAVFEPSEAEISHTQKATLVCLATGFFPDHVELSWWVNGKEVHSGVSTDPQPLKEQPALNDSRYCLSSRLRVSATFWQNPRNHFRCQVQFYGLSENDEWTQDRAKPVTQIVSAEAWGRADCGFTSVSYQQGVLSATILYEILLGKATLYAVLVSALVLMAMVKRKDF
B3: SSX2-TCR-MCR: codon-optimized human/mouse chimeric anti-SSX-2 TCR with mouse constant region, encoded by SEQ ID NO: 30, tested as transduced human PBLs (protein)
chain: MALSSLLKVVTASLWLGPGIAQKITQTQPGMFVQEKEAVTLDCTYDTSDPSYGLFWYKQPSSGEMIFLIYQGSYDQQNATEGRYSLNFQKARKSANLVISASQLGDSAMYFCAMTSGFGNEKLTFGTGTRLTIIPNDIQNPEPAVYQLKDPRSQDSTLCLFTDFDSQINVPKTMESGTFITDKTVLDMKAMDSKSNGAIAWSNQTSFTCQDIFKETNATYPSSDVPCDATLTEKSFETDMNLNFQNLSVMGLRILLLKVAGFNLLMTLRLWSSRAKRSGSGATNFSLLKQAGDVEENPGPMGPGLLHWMALCLLGTGHGDAMVIQNPRYQVTQFGKPVTLSCSQTLNHNVMYWYQQKSSQAPKLLFHYYDKDFNNEADTPDNFQSRRPNTSFCFLDIRSPGLGDAAMYLCATSRGQGGQPQHFGDGTRLSILEDLRNVTPPKVSLFEPSKAEIANKQKATLVCLARGFFPDHVELSWWVNGKEVHSGVSTDPQAYKESNYSYCLSSRLRVSATFWHNPRNHFRCQVQFHGLSEEDKWPEGSPKPVTQNISAEAWGRACGITSSYQQGVLSATILYEILLGKATLYAVLVSTLVVMAMVKRKNS

tested on: Human PBL; test: TCR expression in transduced PBL by FACS; assay type: cell-based; settings: FACS analysis of transduced human PBL
Procedure: Human PBL were untransduced or transduced with a vector comprising SEQ ID NO: 27 (SSX-2 TCR), SEQ ID NO: 29 (codon-optimized SSX-2 TCR), or SEQ ID NO: 30 (codon-optimized SSX-2 TCR including mouse constant region). Expression was measured by FACS analysis. Mean fluorescence intensity was measured to be 656 for cells transduced with SEQ ID NO: 27 (SSX-2 TCR), 910 for cells transduced with SEQ ID NO: 29 (codon-optimized SSX-2 TCR), and 949 for cells transduced with SEQ ID NO: 30 (codon-optimized SSX-2 TCR including mouse constant region).

In order of rising “Mean fluorescence intensity (TCR expression)” value:
1. B1  656
2. B2  910
3. B3  949
